Results as given in patent US6992103B2, “Benzamide derivatives, processes for their preparation, and their pharmaceutical use” (SmithKline Beecham P.L.C., priority 2001, dated 2006).
Some of these results come from one statement about several compounds together.

The chains behind the UniProt entries cited, without tags or fusion partners. Residues count along the entry.
UniProt P56817, 46-501: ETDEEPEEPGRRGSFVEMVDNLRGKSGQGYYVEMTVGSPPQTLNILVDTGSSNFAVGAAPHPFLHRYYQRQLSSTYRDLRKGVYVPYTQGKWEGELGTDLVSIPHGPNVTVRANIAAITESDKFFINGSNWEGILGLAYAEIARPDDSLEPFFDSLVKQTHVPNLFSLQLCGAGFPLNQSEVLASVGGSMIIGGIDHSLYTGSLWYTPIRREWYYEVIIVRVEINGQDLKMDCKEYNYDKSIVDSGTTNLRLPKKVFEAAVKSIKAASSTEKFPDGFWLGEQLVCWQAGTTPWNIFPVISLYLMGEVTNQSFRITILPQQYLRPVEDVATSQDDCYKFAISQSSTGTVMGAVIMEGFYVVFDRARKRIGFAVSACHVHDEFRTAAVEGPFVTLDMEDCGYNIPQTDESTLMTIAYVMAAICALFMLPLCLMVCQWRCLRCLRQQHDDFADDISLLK
UniProt P07339, 65-412, species assumed: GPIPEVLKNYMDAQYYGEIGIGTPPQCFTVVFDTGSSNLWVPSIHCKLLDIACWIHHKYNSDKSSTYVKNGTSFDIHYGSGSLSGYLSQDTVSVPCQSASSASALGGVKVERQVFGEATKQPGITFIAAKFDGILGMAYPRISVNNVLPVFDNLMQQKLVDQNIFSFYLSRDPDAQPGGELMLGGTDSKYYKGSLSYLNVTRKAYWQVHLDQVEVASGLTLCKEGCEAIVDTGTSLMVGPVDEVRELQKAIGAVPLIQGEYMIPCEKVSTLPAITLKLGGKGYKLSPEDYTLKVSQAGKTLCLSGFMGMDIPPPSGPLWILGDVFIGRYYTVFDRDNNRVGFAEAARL

Assays:
Asp-2 = Asp-2 (Homo sapiens, UniProt P56817); test: Asp-2 Inhibitory Assay (FAM-[SEVNLDAEFK]-TAMRA substrate cleavage, fluorescence); type: biochemical; details: Assay (I); range given for a group of Examples; read-out: range of inhibition (Asp-2)
Method: (I) Asp-2 Inhibitory Assay
(§1) For each compound being assayed, in a 384 well plate, is added:
(§2) a) 1 μl of a DMSO solution of the test compound (IC50 curve uses ten 1 in 2 serial dilutions from 500 μM).
b) 10 μl of substrate (FAM-[SEVNLDAEFK]-TAMRA) solution in buffer. This is prepared by diluting 2 ml of a 2 mM DMSO solution of the substrate into 400 ml of buffer (100 mM Sodium acetate pH=4.5, 1 l Milli-Q water, 0.06% Triton X-100 (0.5 ml/l), pH adjusted to 4.5 using glacial acetic acid). Aminomethyl fluorescein (FAM) and tetramethyl rhodamine (TAMRA) are fluorescent molecules which co-operate to emit fluorescence at 535 nm upon cleavage of the SEVNLDAEFK peptide. c) 10 μl enzyme solution. This is prepared by diluting 16 ml of a 500 nM enzyme solution into 384 ml of buffer (prepared as above).
(§3) Blank wells (enzyme solution replaced by buffer) are included as controls on each plate. Wells are incubated for 1 h at room temperature and fluorescence read using a Tecan Ultra Fluorimeter/Spectrophotometer (485 nm excitation, 535 nm emission).

Cathepsin D = Cathepsin D (Homo sapiens, UniProt P07339); test: Cathepsin D Inhibitory Assay (FAM-SEVNLDAEFK-TAMRA substrate cleavage, fluorescence); type: biochemical; details: Assay (III); range given for a group of Examples; read-out: range of inhibition (CatD)
Method: (II) Cathepsin D Inhibitory Assay
as §1, §2
b) 10 μl of substrate (FAM-SEVNLDAEFK-TAMRA) solution in buffer. This is prepared by diluting 2 ml of a 2 mM DMSO solution of the substrate into 400 ml of buffer (100 mM Sodium acetate pH=4.5, 1 l Milli-Q water, 0.06% Triton X-100 (0.5 ml/l), pH adjusted to 4.5 using glacial acetic acid). c) 10 μl enzyme solution. This is prepared by diluting 1.6 ml of a 200 unit/ml (in 10 mM HCl) enzyme solution into 398.4 ml of buffer (prepared as above).
as §3

SMILES	IC50 (Asp-2)	IC50 (Cathepsin D)
CC(C)Oc1cc(C(=O)N[C@@H](Cc2ccccc2)[C@@H](O)C[C@@H](C)C(=O)NCC2CC2)cc(N2CCCC2=O)c1 [Example E28, N-[(1S,2S,4R)-1-Benzyl-4-(cyclopropylmethylcarbamoyl)-2-hydroxypentyl]-3-isopropoxy-5-(2-oxopyrrolidin-1-yl)benzamide]	2 to 900 nM	160 to 3000 nM
CC(C)Oc1cc(C(=O)N[C@@H](Cc2ccccc2)[C@@H](O)C[C@@H](C)C(=O)NC2CCC(C)(C)CC2)cc(N2CCCC2=O)c1 [Example E29, N-[(1S,2S,4R)-1-Benzyl-4-(4,4-dimethylcyclohexylcarbamoyl)-2-hydroxypentyl]-3-isopropoxy-5-(2-oxopyrrolidin-1-yl)benzamide]	2 to 900 nM	160 to 3000 nM
CC(C)Oc1cc(C(=O)N[C@@H](Cc2ccccc2)[C@@H](O)C[C@@H](C)C(=O)NCCC2CCCCC2)cc(N2CCCC2=O)c1 [Example E30, N-[(1S,2S,4R)-1-Benzyl-4-(2-cyclohexylethylcarbamoyl)-2-hydroxypentyl]-3-isopropoxy-5-(2-oxopyrrolidin-1-yl)benzamide]	2 to 900 nM	160 to 3000 nM
C[C@H](C[C@H](O)[C@H](Cc1ccccc1)NC(=O)c1cc(N2CCCC2=O)cc(N2CCCC2=O)c1F)C(=O)NC1CCC1 [Example E31, N-[(1S,2S,4R)-1-Benzyl-4-(cyclobutylcarbamoyl)-2-hydroxypentyl]-2-fluoro-3,5-bis-(2-oxopyrrolidin-1-yl)benzamide]	2 to 900 nM	160 to 3000 nM
C[C@H](C[C@H](O)[C@H](Cc1ccccc1)NC(=O)c1cc(N2CCCC2=O)cc(N2CCCC2=O)c1F)C(=O)NC1CCC(C(C)(C)C)CC1 (stereo partly drawn) [Example E32, N-[(1S,2S,4R)-1-Benzyl-4-(4-tert-butylcyclohexylcarbamoyl)-2-hydroxypentyl]-2-fluoro-3,5-bis-(2-oxopyrrolidin-1-yl)benzamide]	2 to 900 nM	160 to 3000 nM
CCCN(C)C(=O)c1cc(C(=O)N[C@@H](Cc2ccccc2)[C@@H](O)C[C@@H](C)C(=O)NC2CC3CCC2C3)cc(N2CCCC2=O)c1 (stereo partly drawn) [Example E33, N-[(1S,2S,4R)-1-Benzyl-4-(bicyclo[2.2.1]hept-2-ylcarbamoyl)-2-hydroxy-pentyl]-N′-methyl-5-(2-oxo-pyrrolidin-1-yl)-N′-propyl-isophthalamide]	2 to 900 nM	160 to 3000 nM
COc1cc(C(=O)N[C@@H](Cc2ccccc2)[C@@H](O)C[C@@H](C)C(=O)NC2CC3CCC2C3)cc(N2CCCC2=O)n1 (stereo partly drawn) [Example E34, N-[(1S,2S,4R)-1-Benzyl-4-(bicyclo[2.2.1]hept-2-ylcarbamoyl)-2-hydroxypentyl]-2-methoxy-6-(2-oxopyrrolidin-1-yl)pyridine-4-carboxamide]	2 to 900 nM	160 to 3000 nM
COCCCCOc1cc(C(=O)N[C@@H](Cc2ccccc2)[C@@H](O)C[C@@H](C)C(=O)NC2CC3CCC2C3)cc(N2CCCC2=O)c1 (stereo partly drawn) [Example E35, N-[(1S,2S,4R)-1-Benzyl-4-(bicyclo[2.2.1]hept-2-ylcarbamoyl)-2-hydroxypentyl]-3-(4-methoxybutoxy)-5-(2-oxopyrrolidin-1-yl)benzamide]	2 to 900 nM	160 to 3000 nM
